Experimental data from PubChem BioAssay AID1347076 (National Center for Advancing Translational Sciences (NCATS), 2019).
The campaign covered roughly 400,000 compounds. About 13,000 (3.2%) were called active. This list was built around the results that the source calls inconclusive (neither active nor inactive); the mix of calls is not that of the screen. The call rests on the fitted dose curve; in most records, active means well fitted cell-killing curve with a large enough effect; inconclusive means small, poorly fitted or top-dose-only effect, or effect the other way; inactive means flat fitted curve, though single readings scatter. A potency beside an inconclusive call is a rough fit, not a confirmed value.

experiment: qHTS assay for MDR1-selective chemotherapeutics: Primary screen using the drug-selected MDR subline cells KB-V1; conditions: KB-V1 MDR cells viability, CellTiter-Glo, 72 h; activity change, negative = cytotoxicity: at 46.1 µM (top of the series); further: nearly all actives have a fitted effect of over 60% in size
How it was run: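 Cells of the MDR subline KB-V1 are plated, dosed with compound at multiple concentrations, and incubated 72 h at 37 degrees C; CellTiter-Glo is then added and luminescence read after 10 min.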
On the % scale 0 is the no-effect control and ±100 the full control effect; potency means the concentration at half of the fitted maximal effect.

Row | SMILES | Potency | activity change, negative = cytotoxicity
1 | c1coc(CNc2ncnc3c2nc2n3CCCC2)c1 | inactive | –
2 | Cc1cc(Br)c(NC(=O)CCl)c(Br)c1 | inconclusive: 29.1 µM [cytotoxic, single point] | –
3 | Cc1cccc(Nc2nc(N)nc(CSC(=S)N3CCOCC3)n2)c1 | inconclusive: 16.4 µM [cytotoxic, single point] | –
4 | Cc1ccc(-c2cn(-c3cccc(Cl)c3)c(S(=O)(=O)CC(=O)Nc3cccc(C)c3)n2)cc1 | inconclusive: 11.6 µM [cytotoxic, single point] | –
5 | CCOC(=O)CCCCCC(=O)Nc1ccc2c(c1)C(=O)N([C@@H](C)CO)C[C@@H](C)[C@H](CN(C)C(=O)c1ccncc1)OCCCC[C@H](C)O2 | inactive | –
6 | CCC(=O)N1CCC1(C)C(=O)NS(=O)(=O)c1cccc(C#N)c1 (stereo unspecified) | inactive | –
7 | Cc1cccc(NC(=O)c2ccc(CN3CCc4ccccc4C3)cc2)c1C | inconclusive: 23.1 µM [cytotoxic, single point] | –
8 | O=C(NC(=S)Nc1nc2ccc(F)cc2s1)c1ccco1 | inconclusive: 29.1 µM [cytotoxic, single point] | –
9 | COc1cc2c(cc1CNC[C@H]1O[C@@H](n3ccc(N)nc3=O)[C@H](O)[C@@H]1O)OCO2 | inactive | –
10 | COc1ccc(-c2nnc(-c3ccc(OCC(C)C)cc3)o2)cc1 | inconclusive: 29.1 µM [cytotoxic, single point] | –
11 | COc1ccc(OC)c(/C=C2/Sc3ccccc3C2=O)c1 | inconclusive: 29.1 µM [rising, single point] | –
12 | COc1ccc(N(Cc2ccccc2)S(=O)(=O)c2cc(C(=O)O)ccc2Cl)cc1 | inactive | –
13 | CCCCOc1ccc(Br)cc1CSC(=N)N | active: 8.2 µM | –
14 | COC(=O)Nc1cccn(Cc2c(Cl)cccc2Cl)c1=O | inactive | –
15 | Cc1cc2c(cc1S(=O)(=O)N1CCCC1)n(C)c(=O)c(=O)n2C | inactive | –
16 | COc1cc(OC)cc(-c2c(Sc3ccccc3)c3cc(-c4cnc(OC)nc4)ccc3n2C)c1 | inactive | –
17 | COc1ccc(CN2CCN(C(=O)CC(C)C)CC2)c2ccccc12 | inconclusive: 4.61 µM [rising, full curve] | –
18 | O=C(N/N=C/c1ccc(F)cc1)c1cc(-c2ccco2)nc2ccccc12 | inconclusive: 23.1 µM [cytotoxic, single point] | –
19 | COc1ccc2occ(C(=O)c3ccc(N=C(C)N(C)C)cc3)c2c1 | inconclusive: 23.1 µM [cytotoxic, partial curve, poor fit] | –
20 | COc1ccc(Cl)cc1NC(=O)CNc1ccc(F)cc1C | inconclusive: 16.4 µM [cytotoxic, partial curve] | –
21 | COc1ccc(Cl)cc1NC(=O)CSc1nc(NS(=O)(=O)c2ccc(C)cc2)cc(=O)[nH]1 | – | inconclusive: -30.7% [cytotoxic]
22 | CCSc1nnc(-c2ccccc2N)c(=O)[nH]1 | inconclusive: 29.1 µM [rising, partial curve, poor fit] | –

Three compounds already listed, ordered by SMILES length, low to high.
Row | SMILES | Potency | activity change, negative = cytotoxicity
8 | O=C(NC(=S)Nc1nc2ccc(F)cc2s1)c1ccco1 | inconclusive: 29.1 µM [cytotoxic, single point] | –
6 | CCC(=O)N1CCC1(C)C(=O)NS(=O)(=O)c1cccc(C#N)c1 (stereo unspecified) | inactive | –
15 | Cc1cc2c(cc1S(=O)(=O)N1CCCC1)n(C)c(=O)c(=O)n2C | inactive | –

(more compounds)

Row | SMILES | Potency | activity change, negative = cytotoxicity
23 | CC(C)CC1C(=O)N(Cc2cn(CCC3OCCO3)nn2)CCS(=O)(=O)N1Cc1ccc(-c2ccccc2)cc1 (stereo unspecified) | active: 14.6 µM | –
24 | CC(=O)Nc1ccc(S(=O)(=O)Nc2nc3ccccc3nc2N2CCc3ccccc3C2)cc1 | active: 9.2 µM | –
25 | O=C(C1CCCN(S(=O)(=O)c2cccc3nsnc23)C1)N1CC=C(c2ccccc2)CC1 (stereo unspecified) | inconclusive: 18.4 µM [cytotoxic, partial curve] | –
26 | COc1ccc(CCNC(=S)N2CCN(S(=O)(=O)c3ccccc3)CC2)cc1 | inconclusive: 8.2 µM [cytotoxic, partial curve] | –
27 | CCOC(=O)[C@]12CCC=C1N(Cc1ccco1)C(=O)[C@H](CC(=O)NCc1cccc3ccccc13)C2 | inconclusive: 0.517 µM [rising, full curve, poor fit] | –
28 | C[C@@]12CCC=C[C@H]1[C@H](c1ccc(F)c(/C=C/c3ccccc3)c1)N(Cc1ccccc1)C2=O | inconclusive: 16.4 µM [rising, partial curve] | –
29 | CCN(CC(=O)Nc1c(F)cccc1F)C(=O)c1ccc(Cl)c(S(=O)(=O)N2CCCC2)c1 | inactive | –
30 | O=C(N/N=C/c1cccnc1)c1ccc2ccccc2c1O | inconclusive: 29.1 µM [rising, single point] | –
31 | COc1ccc(CCNC(=O)c2ccnc(C(C)(C)C)c2)cc1OC | inconclusive: 20.6 µM [cytotoxic, partial curve, poor fit] | –
32 | Cc1ccc(S(=O)(=O)N2CCC[C@H]2C(=O)Oc2ccccc2)cc1 | inconclusive: 16.4 µM [rising, single point] | –
33 | O=C(O)c1cc2cc(S(=O)(=O)O)ccc2cc1O | inconclusive: 23.1 µM [cytotoxic, partial curve, poor fit] | –
34 | O=C(Nc1c(-c2ccccc2)nc2ccccn12)c1cccc(F)c1 | inactive | –
35 | CC(C)(C)NC(=O)C(c1ccco1)N(C(=O)Cn1nnc(-c2ccc(F)cc2)n1)c1ccccc1 (stereo unspecified) | active: 3.66 µM | –
36 | O=C(Cn1cnnn1)NCc1ccccc1 | inconclusive: 29.1 µM [rising, single point] | –
37 | COc1ccc(CN2CCN(C(=O)CCC(=O)c3ccc(C)s3)CC2)cc1OC | active: 4.11 µM | –
38 | COC(=O)C1CCN(C(=O)c2sc3nc(-c4ccc(F)cc4)cn3c2C)CC1 | inconclusive: 23.1 µM [cytotoxic, single point] | –
39 | Cc1cc(-c2nc(C)c(C(=O)NNS(=O)(=O)c3ccc(Cl)cc3Cl)s2)no1 | inconclusive: 8.2 µM [rising, partial curve, poor fit] | –
40 | Cc1cc(C)cc(NC(=S)NCCc2c[nH]c3ccccc23)c1 | inconclusive: 29.1 µM [cytotoxic, single point] | –
41 | CCOc1ccc(N2C(=O)C3C4C=CC(CC4)C3C2=O)c([N+](=O)[O-])c1 (stereo unspecified) | inconclusive: 18.4 µM [cytotoxic, single point] | –
42 | NC(=O)C1(N2CCCCC2)CCN(C(=O)Nc2ccc(F)cc2)CC1 | inconclusive: 25.9 µM [rising, single point] | –
43 | CCOC(=O)Cc1ccc(Nc2nc(NCc3ccccc3)nc3ccsc23)cc1 | inconclusive: 3.66 µM [cytotoxic, full curve] | –
44 | O=C(NCCN1CCOC1=O)C1CCC(=O)N(CCc2ccc(Cl)cc2)C1 (stereo unspecified) | inconclusive: 7.31 µM [rising, partial curve, poor fit] | –

Row | SMILES | Potency | activity change, negative = cytotoxicity
45 | COc1ccc(Cn2c(CCC(=O)Nc3ccc(CC#N)cc3)nc3cccnc32)cc1 | active: 2.59 µM | –
46 | CC1(C)OC(=O)C2=C(C[C@@H](C3CCCC3)O[C@H]2c2ccc(Cl)cc2)O1 | inconclusive: 25.9 µM [cytotoxic, partial curve, poor fit] | –
47 | CC(C)=CCc1c(O)ccc2c1OC(c1ccc(O)c(O)c1)CC2=O (stereo unspecified) | inactive | –
48 | CCCn1c(N)c(C(=O)CSc2nnc(-c3ccoc3C)n2C)c(=O)n(C)c1=O | inactive | –
49 | COc1cc(OC)cc(C(=O)N[C@H](C(=O)OCC(=O)Nc2ccc(F)c(F)c2F)C(C)C)c1 | inconclusive: 2.91 µM [cytotoxic, partial curve, poor fit] | –
50 | O=C(CNC(=O)c1ccccc1)OCc1cc(=O)n2ccsc2n1 | inconclusive: 10.3 µM [rising, partial curve, poor fit] | –
51 | COC(=O)[C@@]12C[C@@H](CC(=O)NCc3ccc(C)o3)C(=O)N(Cc3ccco3)C1=CCC(C)(C)C2 | inconclusive: 7.31 µM [cytotoxic, partial curve] | –
52 | Cc1cc(Nc2cccc([N+](=O)[O-])c2)c2ccccc2n1 | inconclusive: 23.1 µM [cytotoxic, single point] | –
53 | O=C(CN(C1CCCCC1)S(=O)(=O)c1ccccc1)NCC1CCCO1 (stereo unspecified) | inconclusive: 18.4 µM [cytotoxic, single point] | –
54 | Cn1c(=O)c2c(-c3ccccc3)n3c(c2n(C)c1=O)C(c1ccco1)Nc1ccccc1-3 (stereo unspecified) | inconclusive: 18.4 µM [rising, single point] | –
55 | NC(=O)Cn1cc(C(=O)C(=O)N2CCOCC2)c2ccccc21 | inconclusive: 32.6 µM [rising, single point] | –
56 | O=C(CNCCc1ccccc1)N1CCc2ccccc2C1 | inconclusive: 29.1 µM [cytotoxic, partial curve, poor fit] | –
57 | CCc1cc(=O)oc2cc(C)cc(OCC(=O)N3CCC(C(=O)NC(C)C)(c4ccccc4)CC3)c12 | inconclusive: 20.6 µM [cytotoxic, single point] | –
58 | N#C/C(=C/c1cccc(C(F)(F)F)c1)c1nc(CCN2C(=O)c3ccccc3C2=O)cs1 | active: 20.6 µM | –
59 | CC1(C)N=C(N)N=C(N)N1CCCCc1ccccc1 | inactive | –
60 | Cc1cc(C)cc(NC(=O)CCCn2c3ccccc3c(=O)c3ccccc32)c1 | inconclusive: 7.31 µM [cytotoxic, partial curve, poor fit] | –
61 | Cc1cc(NC(=O)CSc2nc(=O)cc(N)n2-c2ccc(Cl)cc2)no1 | inconclusive: 6.51 µM [rising, partial curve, poor fit] | –
62 | CC(=O)Nc1cc2c(cc1[N+](=O)[O-])-c1ccccc1C2O (stereo unspecified) | inactive | –
63 | CCOc1ccc(CCNC(=O)c2ccc(Cl)c(S(=O)(=O)N3CCOCC3)c2)cc1OCC | inconclusive: 29.1 µM [cytotoxic, single point] | –
64 | CCOc1ccc(NC(=O)c2ccc3c(c2)CCN3S(=O)(=O)c2ccc(Cl)cc2)cc1 | inactive | –
65 | COc1ccc(-n2c(C)cc(C(=O)COC(=O)Cn3cnc4ccccc43)c2C)cc1 | inactive | –
66 | COc1ccc(Cl)c(Cn2c(NCc3ccccn3)nc3c2c(=O)n(C)c(=O)n3C)c1 | inconclusive: 7.31 µM [cytotoxic, partial curve] | –
